From article PMC3775806
No constants are given. Whether binding was seen depends on the method and setting. In cells and extracts the contact can be indirect.

Molecular target: HA-Lia5p (Tetrahymena thermophila)
Assay: co-IP; anti-HA immunoprecipitation from lysates of conjugating HA-LIA5 cells; IP and supernatant analysed by SDS-PAGE and western blot with anti-HA, anti-Pdd1 and anti-Pdd3; controls: untransformed cells (Mock1) and rabbit IgG only (Mock2); performed as in ref. 35

binding: no binding
B1: Pdd1p (protein, UniProt Q94996 1-499)
chain: MFTVKSLQQFQAKKAINISIKKMSQKKSLKQKRKQDYSSDTEEEEEDQYEVEKILDSRFNPKTKQKEYLVKWENWPIEDSTWEPYEHLSNVKEIVQAFEKKQKANVMPQPTGPITRVNAQKDPQKKNRLSLNSSISKSLPQEEEIQTSKEDSKKQAVKKFQPASRRKSISSQSDSDLQAEEVPQQPESKKDKNDGAFEEPNNADADETELVFEEIVDKRILDGQTEYLIRFQNVSQPQWVDVGQLIAIKDDVIAYEDKIAAQSQLNKTKNLKENAKHSSQQQQSENNNLETEEVEEDKDSKKRSLLANSKRPTAKRSQPFNQDEEKEKSVTQPTSNLGSKGQSQQVEKEQATNSQTQQPQTAHRSGSRLSQIQSNANQVTQQAQQLSNTNNSSSTSLEVSSKMPSQMSQKRRPIELTEIQQGDFKTDNVDKIEIQGDFNDIMTSRFEVFWKIRQDNVTPASQVYSASYLRRYEPQVLIDFLLQHSNQSQLRQANQQLTH
